# Laboratory results: PubChem BioAssay AID1259425 (University of Nebraska Medical Center, 2018)
# Purpose: 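Compare each knockdown with KSR1 silencing using changes in marker transcripts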 (primary screen)
# Cells: HCT116 human colon cancer cells
# Reagents: siRNA pool against human genes, 50 nM siRNA
# Measurement: 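mRNA of six signature genes measured together by branched-DNA assay after 50 nM siRNA pool, blank removed, divided by geometric mean of two housekeeping genes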
# Scale: BNIP3L mRNA: higher = more BNIP3L transcript after knockdown; NDRG1 mRNA: higher = more NDRG1 transcript after knockdown; BNIP3 mRNA: higher = more BNIP3 transcript after knockdown; ALDOC mRNA: higher = more ALDOC transcript after knockdown; ACSL5 mRNA: higher = more ACSL5 transcript after knockdown
# Here is an unselected part of about 14,000 deposited reagents. No sequences are given here. Not stated in the record: the time to read-out.
Target gene,"BNIP3L mRNA, set 1","NDRG1 mRNA, set 1","BNIP3 mRNA, set 1","ALDOC mRNA, set 1","ACSL5 mRNA, set 1"
HDGF (heparin binding growth factor),0.15,0.32,0.335,0.0316,0.169
TUBGCP6 (tubulin gamma complex component 6),0.0991,0.0902,0.298,0.0272,0.109
IVL (involucrin),0.107,0.386,0.3,0.0263,0.123
IL15 (interleukin 15),0.0627,0.11,0.251,0.0243,0.0938
SLC22A17,0.0773,0.129,0.351,0.023,0.192
HCRTR1 (hypocretin receptor 1),0.0854,0.329,0.214,0.0337,0.22
PPP1R3D (protein phosphatase 1 regulatory subunit 3D),0.107,0.222,0.222,0.0377,0.115
SLC1A4,0.141,0.343,0.335,0.0316,0.23
SACM1L (SAC1 like phosphatidylinositide phosphatase),0.126,0.29,0.265,0.0118,0.14
TIMM17A (translocase of inner mitochondrial membrane 17A),0.133,0.134,0.529,0.0585,0.273
LMBR1L (limb development membrane protein 1 like),0.0884,0.0718,0.287,0.0256,0.103
EPC1 (enhancer of polycomb 1),0.105,0.18,0.278,0.0183,0.152
NT5E (5'-nucleotidase ecto),0.0815,0.395,0.226,0.0228,0.174
FBXW9 (F-box and WD repeat domain containing 9),0.194,0.156,0.317,0.146,0.447
PDCD7 (programmed cell death 7),0.0393,0.667,0.377,0.122,0.201
TNFRSF11A (TNF receptor superfamily member 11a),0.129,0.146,0.266,0.0237,0.0818
PHKB (phosphorylase kinase regulatory subunit beta),0.0525,0.19,0.314,0.015,0.112
YTHDF2 (YTH N6-methyladenosine RNA binding protein F2),0.185,0.123,0.367,0.0599,0.178
MGST3 (microsomal glutathione S-transferase 3),0.137,0.201,0.538,0.0562,0.197
HDAC2 (histone deacetylase 2),0.0771,0.173,0.151,0.0144,0.231
HAS3 (hyaluronan synthase 3),0.16,0.482,0.33,0.0154,0.112
LYAR (Ly1 antibody reactive),0.093,0.291,0.421,0.0617,0.128
USP25 (ubiquitin specific peptidase 25),0.111,0.264,0.176,0.0168,0.186
CD226 (CD226 molecule),0.124,0.283,0.313,0.0494,0.296
CRYAA (crystallin alpha A),0.148,0.51,0.316,0.0264,0.285
DYNLT1 (dynein light chain Tctex-type 1),0.071,0.0756,0.327,0.0467,0.0817
ZNF71 (zinc finger protein 71),0.0947,0.143,0.361,0.0653,0.121
COX8A (cytochrome c oxidase subunit 8A),0.0841,0.183,0.169,-0.00178,0.0663
KATNBL1 (katanin regulatory subunit B1 like 1),0.174,0.326,0.354,0.0174,0.236
GRAMD1B (GRAM domain containing 1B),0.152,0.266,0.247,0.067,0.205
TAS2R19 (taste 2 receptor member 19),0.103,0.173,0.387,0.0511,0.215
TRIM21 (tripartite motif containing 21),0.141,0.117,0.323,0.0328,0.0857
ENTREP1 (endosomal transmembrane epsin interactor 1),0.178,0.508,0.303,0.0259,0.355
MPC1,0.132,0.103,0.212,0.0246,0.222

An excerpt of the results above, for reference:
Target gene,"BNIP3L mRNA, set 1","NDRG1 mRNA, set 1","BNIP3 mRNA, set 1","ALDOC mRNA, set 1","ACSL5 mRNA, set 1"
HDGF (heparin binding growth factor),0.15,0.32,0.335,0.0316,0.169
TUBGCP6 (tubulin gamma complex component 6),0.0991,0.0902,0.298,0.0272,0.109
IVL (involucrin),0.107,0.386,0.3,0.0263,0.123
IL15 (interleukin 15),0.0627,0.11,0.251,0.0243,0.0938
